# Assay results reported in patent US20080012929A1, “AZO DYE, HEAT-SENSITIVE TRANSFER RECORDING INK SHEET, HEAT-SENSITIVE TRANSFER RECORDING METHOD, COLOR TONER, INKJET INK AND COLOR FILTER” (FUJIFILM Corporation, priority 2006, published 2008).
# Some compounds share one wording; it may come from a single statement.
# Experiment: Heat-sensitive transfer recording: Status A reflection density at solid density portion of the image
# Conditions: solid density (100% dot density), thermal head 0.25 W/dot
# Description: The thus-obtained ink sheet 1 and image-receiving material were superposed so that the dye-providing layer in the ink sheet and the image-receiving layer in the image-receiving material were contacted with each other. For printing, a thermal head was used from the back side of the dye-providing material under the following conditions:
# Output of the thermal head: 0.25 W/dot; Pulse interval: 0.15 milliseconds to 15 milliseconds; and dot density: 6 dots/mm. Then, the image-receiving layer of the image-receiving material was image-wise colored by the yellow dye. […] Image recordings were conducted in the same manner as the above-described image recording, except that ink sheet 1 was replaced by ink sheets 2 to 14, respectively.
# Status A reflection densities were measured in the portion indicating a solid density (100% dot density) of each of the obtained images, and evaluated according to the following three grades: • A (very good): reflection density of 1.8 or more • B (good): reflection density of 1.6 or more but less than 1.8 • C (probably acceptable): reflection density of 1.0 or more but less than 1.6
row,SMILES,Transferring property
1,CC(C)Cn1nc(C(C)(C)C)c(N=Nc2ccc([N+](=O)[O-])cc2)c1N [(7)],B (B (good): reflection density of 1.6 or more but less than 1.8)
2,"CCN(CCOc1ccc(C2CCCCC2)cc1)c1ccc(C=C(C#N)C#N)c(C)c1 [Dye for Comparison 2, reference compound]",A (A (very good): reflection density of 1.8 or more)
3,CCC(C)n1nc(C(C)(C)C)c(N=Nc2ccc([N+](=O)[O-])cc2)c1N (stereo not drawn) [(8)],B (B (good): reflection density of 1.6 or more but less than 1.8)
4,CCCCCn1nc(C(C)(C)C)c(N=Nc2ccc([N+](=O)[O-])cc2)c1N [(5)],A (A (very good): reflection density of 1.8 or more)
5,CC(C)CCn1nc(C(C)(C)C)c(N=Nc2ccc([N+](=O)[O-])cc2)c1N [(9)],B (B (good): reflection density of 1.6 or more but less than 1.8)
6,"CCCCN(CCCC)C(=O)c1ccc2c(c1)C(=O)C(c1nc3ccc(C(C)C)cc3cc1O)C2=O (stereo not drawn) [Dye for Comparison 3, reference compound]",C (C (probably acceptable): reflection density of 1.0 or more but less than 1.6)
